Data from patent publication US5972945A, “2-aminoalkylaminoquinolines; dopamine receptor subtype specific ligands” (Neurogen Corporation, priority 1998, dated 1999).
Counter-ions that a name gives are not always drawn. For at least one compound, name, drawing or mass did not settle the structure.

Tests used:
D4 receptor = D4 receptor binding (3H-YM 09151-2 displacement); parameters: species or system African Green monkey; conditions: Table 1; 0.5 nM 3H-YM 09151-2, COS cells with recombinant receptor
Experimental: Pellets of COS cells containing recombinantly produced D2 or D4 receptors from African Green monkey were used for the assays. The sample is homogenized in 100 volumes (w/vol) of 0.05 M Tris HCl buffer at 4° C. and pH 7.4. The sample is then centrifuged at 30,000×g and resuspended and rehomogenized. The sample is then centrifuged as described and the final tissue sample is frozen until use. The tissue is resuspended 1:20 (wt/vol) in 0.05 M Tris HCl buffer containing 100 mM NaCl.
Incubations are carried out at […] and contain 0.4 ml of tissue sample, 0.5 nM ^3 H-YM 09151-2 and the compound of interest in a total incubation of 1.0 ml. Nonspecific binding is defined as that binding found in the presence of […]; without further additions nonspecific binding is less than 20% of total binding. Binding characteristics of various compounds of the invention for D2 and D4 receptor subtypes are shown in Table 1 for […].

M1 Muscarinic subtype = experiment: M1 muscarinic subtype assay essentially as in U.S. Pat. No. 5,093,333; assay type: binding; conditions: Table 1; parameter not stated
Experimental: (§1) Various compounds of the invention were also evaluated in M1 and M2 Muscarinic subtype assays essentially as set forth in U.S. Pat. No. 5,093,333.

M2 Muscarinic subtype = experiment: M2 muscarinic subtype assay essentially as in U.S. Pat. No. 5,093,333; assay type: binding; conditions: Table 1; parameter not stated
Experimental: as §1

## c1cnc(N2CCN(CCNc3ccc4ccccc4n3)CC2)nc1 [Compound 1, (2-(4-pyrimidin-2-ylpiperazinyl)ethyl)-2-quinolylamine]
D4 receptor
  Ki: 10 nM
M1 Muscarinic subtype
  M1: 264 nM
M2 Muscarinic subtype
  M2: 299 nM

## Cc1cc(NCCN2CCN(c3ncccn3)CC2)nc2ccccc12 [Compound 11, (4-methyl(2-quinolyl))(2-(4-pyrimidin-2-ylpiperazinyl)ethyl)amine hydrobromide]
D4 receptor
  Ki: 10 nM
M1 Muscarinic subtype
  M1: 178 nM
M2 Muscarinic subtype
  M2: 246 nM
